Experimental data taken from US20250145665A1, “MACROCYCLIC PEPTIDES USEFUL AS MODULATORS OF TNF ALPHA” (Bristol-Myers Squibb Company, priority 2023, published 2025).
Some of these results come from one statement about several compounds together. Starred links: 1 amine or outer side, 2 acyl side, 3 side chain; linkers in the order of their positions; H or OH if unused. Positions of bridges follow the written chain, without caps; N, C: chain ends. Non-standard residues stand in square brackets, D forms with d. Residues, ends and D or L forms follow the SMILES beside them. ξ: configuration not given here. Bip(4'-COOH) = N[C@@H](Cc1ccc(-c2ccc(C(=O)O)cc2)cc1)C(=O)O; Bip(4'-NHAc) = CC(=O)Nc1ccc(-c2ccc(C[C@H](N)C(=O)O)cc2)cc1; Phe(3-CH2NH2) = O=C([C@H](Cc1cccc(CN[*:3])c1)N[*:1])[*:2]; Ala(morpholin-4-yl) = N[C@@H](CN1CCOCC1)C(=O)O; Phe(3-CONH2) = NC(=O)c1cccc(C[C@H](N)C(=O)O)c1; Bip = N[C@@H](Cc1ccc(-c2ccccc2)cc1)C(=O)O; Ala(2-furyl) = N[C@@H](Cc1ccco1)C(=O)O; Phe(2-Me) = Cc1ccccc1C[C@H](N)C(=O)O; 2Pal = N[C@@H](Cc1ccccn1)C(=O)O; 2Thi = N[C@@H](Cc1cccs1)C(=O)O; Cha = N[C@@H](CC1CCCCC1)C(=O)O; Tle = CC(C)(C)[C@H](N)C(=O)O; ξIle = CC[C@H](C)C(N)C(=O)O; Dab = NCC[C@H](N)C(=O)O; Sar = CNCC(=O)O

Sequences of proteins named here, by UniProt entry; tags and fusion partners are left off. Residues count along the entry.
UniProt P01375, 77-233 limits assumed: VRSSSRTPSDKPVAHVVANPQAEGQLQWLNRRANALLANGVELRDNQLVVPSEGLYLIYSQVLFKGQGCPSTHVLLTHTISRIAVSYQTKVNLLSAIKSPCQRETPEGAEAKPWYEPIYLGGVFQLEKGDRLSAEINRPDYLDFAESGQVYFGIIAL

Molecular target: TNFα (Homo sapiens, UniProt P01375)
Test: TNF-Induced HEK-Blue Assay
Format: cell-based
Conditions: summary statement for all examples; read-out: IC50 values measured in the TNF induced HEK-Blue assay

IC50, ≤ 25 µM:
CC(=O)Nc1ccc(-c2ccc(C[C@@H]3NC(=O)[C@H](Cc4ccc(-c5ccc(C(=O)O)cc5)cc4)NC(=O)[C@H](CC4CCCCC4)NC(=O)CSC[C@@H](C(=O)N[C@@H](CCN)C(N)=O)NC(=O)[C@H](CC(C)C)NC(=O)[C@H](Cc4ccc(O)cc4)NC(=O)[C@H](C(C)C)NC(=O)[C@@H]4CCCN4C(=O)[C@H](C(C)C)NC(=O)[C@@H](CCCNC(=N)N)NC(=O)[C@H](CC(=O)O)NC(=O)[C@@H]4CCCN4C(=O)CN(C)C3=O)cc2)cc1 [Example 243] ({CH2CO}-[Cha][Bip(4'-COOH)][Bip(4'-NHAc)][Sar]PD[dR]VPVYLC[Dab]-NH2; thioether N-13), CC(=O)Nc1ccc(-c2ccc(C[C@@H]3NC(=O)[C@H](Cc4ccc(-c5ccc(C(=O)O)cc5)cc4)NC(=O)[C@H](CC4CCCCC4)NC(=O)CSC[C@@H](C(=O)N[C@@H](CCC(N)=O)C(N)=O)NC(=O)[C@H](CC(C)C)NC(=O)[C@H](Cc4ccc(O)cc4)NC(=O)[C@H](C(C)C)NC(=O)[C@@H]4CCCN4C(=O)[C@H](C(C)C)NC(=O)[C@@H](CCCNC(=N)N)NC(=O)[C@H](CC(=O)O)NC(=O)[C@@H]4CCCN4C(=O)CN(C)C3=O)cc2)cc1 [Example 244] ({CH2CO}-[Cha][Bip(4'-COOH)][Bip(4'-NHAc)][Sar]PD[dR]VPVYLCQ-NH2; thioether N-13), CC(=O)Nc1ccc(-c2ccc(C[C@@H]3NC(=O)[C@H](Cc4ccc(-c5ccc(C(=O)O)cc5)cc4)NC(=O)[C@H](CC4CCCCC4)NC(=O)CSC[C@@H](C(=O)NCC(N)=O)NC(=O)[C@H](CC(C)C)NC(=O)[C@H](Cc4cccs4)NC(=O)[C@H](C(C)C)NC(=O)[C@@H]4CCCN4C(=O)[C@H](C(C)C)NC(=O)[C@@H](CCCNC(=N)N)NC(=O)[C@H](CC(=O)O)NC(=O)[C@@H]4CCCN4C(=O)CN(C)C3=O)cc2)cc1 [Example 245] ({CH2CO}-[Cha][Bip(4'-COOH)][Bip(4'-NHAc)][Sar]PD[dR]VPV[2Thi]LCG-NH2; thioether N-13), CC(=O)Nc1ccc(-c2ccc(C[C@@H]3NC(=O)[C@H](Cc4ccc(-c5ccc(C(=O)O)cc5)cc4)NC(=O)[C@H](CC4CCCCC4)NC(=O)CSC[C@@H](C(=O)NCC(N)=O)NC(=O)[C@H](CC(C)C)NC(=O)[C@H](Cc4ccco4)NC(=O)[C@H](C(C)C)NC(=O)[C@@H]4CCCN4C(=O)[C@H](C(C)C)NC(=O)[C@@H](CCCNC(=N)N)NC(=O)[C@H](CC(=O)O)NC(=O)[C@@H]4CCCN4C(=O)CN(C)C3=O)cc2)cc1 [Example 246] ({CH2CO}-[Cha][Bip(4'-COOH)][Bip(4'-NHAc)][Sar]PD[dR]VPV[Ala(2-furyl)]LCG-NH2; thioether N-13), CC(=O)Nc1ccc(-c2ccc(C[C@@H]3NC(=O)[C@H](Cc4ccc(-c5ccc(C(=O)O)cc5)cc4)NC(=O)[C@H](CC4CCCCC4)NC(=O)CSC[C@@H](C(=O)NCC(N)=O)NC(=O)[C@H](CC(C)C)NC(=O)[C@H](Cc4ccc(O)cc4)NC(=O)[C@H](C(C)C)NC(=O)[C@@H]4CCCN4C(=O)[C@H](CC(N)=O)NC(=O)[C@@H](CCCNC(=N)N)NC(=O)[C@H](CC(=O)O)NC(=O)[C@@H]4CCCN4C(=O)CN(C)C3=O)cc2)cc1 [Example 247] ({CH2CO}-[Cha][Bip(4'-COOH)][Bip(4'-NHAc)][Sar]PD[dR]NPVYLCG-NH2; thioether N-13), CC(=O)Nc1ccc(-c2ccc(C[C@@H]3NC(=O)[C@H](Cc4ccc(-c5ccc(C(=O)O)cc5)cc4)NC(=O)[C@H](CC4CCCCC4)NC(=O)CSC[C@@H](C(=O)NCC(N)=O)NC(=O)[C@H](CC(C)C)NC(=O)[C@H](Cc4cnc[nH]4)NC(=O)[C@H](C(C)C)NC(=O)[C@@H]4CCCN4C(=O)[C@H](CC(N)=O)NC(=O)[C@@H](CCCNC(=N)N)NC(=O)[C@H](CC(=O)O)NC(=O)[C@H](Cc4ccc(O)cc4)NC(=O)CN(C)C3=O)cc2)cc1 [Example 248] ({CH2CO}-[Cha][Bip(4'-COOH)][Bip(4'-NHAc)][Sar]YD[dR]NPVHLCG-NH2; thioether N-13), CC(=O)Nc1ccc(-c2ccc(C[C@@H]3NC(=O)[C@H](Cc4ccc(-c5ccccc5)cc4)NC(=O)[C@H](CC4CCCCC4)NC(=O)CSC[C@@H](C(=O)N[C@@H](CCC(=O)O)C(N)=O)NC(=O)[C@H](CC(C)C)NC(=O)[C@H](Cc4cnc[nH]4)NC(=O)[C@H](C(C)C)NC(=O)[C@@H]4CCCN4C(=O)[C@H](C(C)C)NC(=O)[C@@H](CCCNC(=N)N)NC(=O)[C@H](CC(=O)O)NC(=O)[C@H](Cc4ccc(O)cc4)NC(=O)CN(C)C3=O)cc2)cc1 [Example 249] ({CH2CO}-[Cha][Bip][Bip(4'-NHAc)][Sar]YD[dR]VPVHLCE-NH2; thioether N-13), CC(=O)Nc1ccc(-c2ccc(C[C@@H]3NC(=O)[C@H](Cc4ccc(-c5ccc(C(=O)O)cc5)cc4)NC(=O)[C@H](CC4CCCCC4)NC(=O)CSC[C@@H](C(=O)NCC(N)=O)NC(=O)[C@H](CC(C)C)NC(=O)[C@H](Cc4cccc(C(N)=O)c4)NC(=O)[C@H](C(C)C)NC(=O)[C@@H]4CCCN4C(=O)[C@H](C(C)C)NC(=O)[C@@H](CCCNC(=N)N)NC(=O)[C@H](CC(=O)O)NC(=O)[C@H](Cc4ccccn4)NC(=O)CN(C)C3=O)cc2)cc1 [Example 251] ({CH2CO}-[Cha][Bip(4'-COOH)][Bip(4'-NHAc)][Sar][2Pal]D[dR]VPV[Phe(3-CONH2)]LCG-NH2; thioether N-13), CC(=O)Nc1ccc(-c2ccc(C[C@@H]3NC(=O)[C@H](Cc4ccc(-c5ccc(C(=O)O)cc5)cc4)NC(=O)[C@H](CC4CCCCC4)NC(=O)CSC[C@@H](C(=O)NCC(N)=O)NC(=O)[C@H](CC(C)C)NC(=O)[C@H](Cc4cccc(C(N)=O)c4)NC(=O)[C@H](C(C)C)NC(=O)[C@@H]4CCCN4C(=O)[C@H](C(C)C)NC(=O)[C@@H](CCCNC(=N)N)NC(=O)[C@H](CC(=O)O)NC(=O)[C@H](Cc4ccc(O)cc4)NC(=O)CN(C)C3=O)cc2)cc1 [Example 252] ({CH2CO}-[Cha][Bip(4'-COOH)][Bip(4'-NHAc)][Sar]YD[dR]VPV[Phe(3-CONH2)]LCG-NH2; thioether N-13), CC(=O)Nc1ccc(-c2ccc(C[C@@H]3NC(=O)[C@H](Cc4ccc(-c5ccccc5)cc4)NC(=O)[C@H](CC4CCCCC4)NC(=O)CSC[C@@H](C(=O)NCC(N)=O)NC(=O)[C@H](CC(C)C)NC(=O)[C@H](Cc4cnc[nH]4)NC(=O)[C@H](C(C)C)NC(=O)[C@@H]4CCCN4C(=O)[C@H](CC(N)=O)NC(=O)[C@@H](CCCNC(=N)N)NC(=O)[C@H](CC(=O)O)NC(=O)[C@@H]4CCCN4C(=O)CN(C)C3=O)cc2)cc1 [Example 253] ({CH2CO}-[Cha][Bip][Bip(4'-NHAc)][Sar]PD[dR]NPVHLCG-NH2; thioether N-13), CC(=O)Nc1ccc(-c2ccc(C[C@@H]3NC(=O)[C@H](Cc4ccc(-c5ccc(C(=O)O)cc5)cc4)NC(=O)[C@H](CC4CCCCC4)NC(=O)CSC[C@@H](C(=O)NCC(N)=O)NC(=O)[C@H](CC(C)C)NC(=O)[C@H](Cc4cccc(CN)c4)NC(=O)[C@H](C(C)C)NC(=O)[C@@H]4CCCN4C(=O)[C@H](C(C)C)NC(=O)[C@@H](CCCNC(=N)N)NC(=O)[C@H](CC(=O)O)NC(=O)[C@@H]4CCCN4C(=O)CN(C)C3=O)cc2)cc1 [Example 254] ({CH2CO}-[Cha][Bip(4'-COOH)][Bip(4'-NHAc)][Sar]PD[dR]VPV[Phe(3-CH2NH2)]LCG-NH2; thioether N-13), CC(=O)Nc1ccc(-c2ccc(C[C@@H]3NC(=O)[C@H](Cc4ccc(-c5ccc(C(=O)O)cc5)cc4)NC(=O)[C@H](CC4CCCCC4)NC(=O)CSC[C@@H](C(=O)NCC(N)=O)NC(=O)[C@H](CC(C)C)NC(=O)[C@H](Cc4ccccc4C)NC(=O)[C@H](C(C)C)NC(=O)[C@@H]4CCCN4C(=O)[C@H](C(C)C)NC(=O)[C@@H](CCCNC(=N)N)NC(=O)[C@H](CC(=O)O)NC(=O)[C@@H]4CCCN4C(=O)CN(C)C3=O)cc2)cc1 [Example 255] ({CH2CO}-[Cha][Bip(4'-COOH)][Bip(4'-NHAc)][Sar]PD[dR]VPV[Phe(2-Me)]LCG-NH2; thioether N-13), CC[C@H](C)[C@@H]1NC(=O)[C@@H](CCCNC(=N)N)NC(=O)[C@H](CC(=O)O)NC(=O)[C@@H]2CCCN2C(=O)CN(C)C(=O)[C@H](Cc2ccc(-c3ccc(NC(C)=O)cc3)cc2)NC(=O)[C@H](Cc2ccc(-c3ccc(C(=O)O)cc3)cc2)NC(=O)[C@H](CC2CCCCC2)NC(=O)CSC[C@@H](C(=O)NCC(N)=O)NC(=O)[C@H](CC(C)C)NC(=O)[C@H](Cc2ccc(O)cc2)NC(=O)[C@H](C(C)C)NC(=O)[C@@H]2CCCN2C1=O [Example 256] ({CH2CO}-[Cha][Bip(4'-COOH)][Bip(4'-NHAc)][Sar]PD[dR]IPVYLCG-NH2; thioether N-13), CC[C@H](C)[C@@H]1NC(=O)[C@@H](CCCNC(=N)N)NC(=O)[C@H](CC(=O)O)NC(=O)[C@H](Cc2cnc[nH]2)NC(=O)CN(C)C(=O)[C@H](Cc2ccc(-c3ccc(NC(C)=O)cc3)cc2)NC(=O)[C@H](Cc2ccc(-c3ccc(C(=O)O)cc3)cc2)NC(=O)[C@H](CC2CCCCC2)NC(=O)CSC[C@@H](C(=O)NCC(N)=O)NC(=O)[C@H](CC(C)C)NC(=O)[C@H](Cc2cnc[nH]2)NC(=O)[C@H](C(C)C)NC(=O)[C@@H]2CCCN2C1=O [Example 257] ({CH2CO}-[Cha][Bip(4'-COOH)][Bip(4'-NHAc)][Sar]HD[dR]IPVHLCG-NH2; thioether N-13), CC[C@H](C)C1NC(=O)[C@@H](CCCNC(=N)N)NC(=O)[C@H](CC(=O)O)NC(=O)[C@H](Cc2ccc(O)cc2)NC(=O)CN(C)C(=O)[C@H](Cc2ccc(-c3ccc(NC(C)=O)cc3)cc2)NC(=O)[C@H](Cc2ccc(-c3ccccc3)cc2)NC(=O)[C@H](CN2CCOCC2)NC(=O)CSC[C@@H](C(=O)NCC(N)=O)NC(=O)[C@H](CC(C)C)NC(=O)[C@H](Cc2cccs2)NC(=O)[C@H](C(C)C)NC(=O)[C@@H]2CCCN2C1=O (stereo partly shown) [Example 258] ({CH2CO}-[Ala(morpholin-4-yl)][Bip][Bip(4'-NHAc)][Sar]YD[dR][ξIle]PV[2Thi]LCG-NH2; thioether N-13), CC(=O)Nc1ccc(-c2ccc(C[C@@H]3NC(=O)[C@H](Cc4ccc(-c5ccccc5)cc4)NC(=O)[C@H](C(C)(C)C)NC(=O)CSC[C@@H](C(=O)NCC(N)=O)NC(=O)[C@H](CC(C)C)NC(=O)[C@H](Cc4cccs4)NC(=O)[C@H](C(C)C)NC(=O)[C@@H]4CCCN4C(=O)[C@H](C(C)C)NC(=O)[C@@H](CCCNC(=N)N)NC(=O)[C@H](CC(=O)O)NC(=O)[C@H](Cc4ccc(O)cc4)NC(=O)CN(C)C3=O)cc2)cc1 [Example 259] ({CH2CO}-[Tle][Bip][Bip(4'-NHAc)][Sar]YD[dR]VPV[2Thi]LCG-NH2; thioether N-13)
